# Results as given in PMC12890168.
# Results are given in words; binding and its absence hold for the method and conditions named. In cells and extracts the contact can be indirect. Some entries that bind do so weakly or less than the wild type. For some of these results: Tags and fused reporters may be left off the sequences shown.
# T1: BAK (human (endogenous in HeLa)) (UniProt Q16611)
# T1 sequence: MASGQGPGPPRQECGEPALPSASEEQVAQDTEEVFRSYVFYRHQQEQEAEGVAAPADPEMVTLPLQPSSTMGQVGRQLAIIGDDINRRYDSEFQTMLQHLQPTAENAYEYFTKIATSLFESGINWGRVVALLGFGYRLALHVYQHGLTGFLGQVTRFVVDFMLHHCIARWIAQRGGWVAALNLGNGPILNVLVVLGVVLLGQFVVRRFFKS
# B1: OmpA from Chlamydia trachomatis, ectopically expressed in HeLa cells (HeLa OmpA expressing cells of Fig 2A) (protein, UniProt P06597 23-394)
# chain: LPVGNPAEPSLMIDGILWEGFGGDPCDPCTTWCDAISMRMGYYGDFVFDRVLQTDVNKEFQMGAKPTTATGNAAAPSTCTARENPAYGRHMQDAEMFTNAAYMALNIWDRFDVFCTLGATSGYLKGNSASFNLVGLFGDNENHATVSDSKLVPNMSLDQSVVELYTDTTFAWSAGARAALWECGCATLGASFQYAQSKPKVEELNVLCNAAEFTINKPKGYVGQEFPLDLKAGTDGVTGTKDASIDYHEWQASLALSYRLNMFTPYIGVKWSRASFDADTIRIAQPKSATTVFDVTTLNPTIAGAGDVKASAEGQLGDTMQIVSLQLNKMKSRKSCGIAVGTTIVDADKYAVTVETRLIDERAAHVNAQFRF
# B2: OmpA from Chlamydia trachomatis, untagged, tetracycline/AHT-inducible in HeLa cells (Tet-OmpA HeLa cells) (protein, UniProt P06597 23-394)
# chain: LPVGNPAEPSLMIDGILWEGFGGDPCDPCTTWCDAISMRMGYYGDFVFDRVLQTDVNKEFQMGAKPTTATGNAAAPSTCTARENPAYGRHMQDAEMFTNAAYMALNIWDRFDVFCTLGATSGYLKGNSASFNLVGLFGDNENHATVSDSKLVPNMSLDQSVVELYTDTTFAWSAGARAALWECGCATLGASFQYAQSKPKVEELNVLCNAAEFTINKPKGYVGQEFPLDLKAGTDGVTGTKDASIDYHEWQASLALSYRLNMFTPYIGVKWSRASFDADTIRIAQPKSATTVFDVTTLNPTIAGAGDVKASAEGQLGDTMQIVSLQLNKMKSRKSCGIAVGTTIVDADKYAVTVETRLIDERAAHVNAQFRF
# B3: OmpA of Chlamydia trachomatis serovar L2, made by the bacteria during infection of HeLa cells (protein, UniProt P06597 23-394)
# chain: LPVGNPAEPSLMIDGILWEGFGGDPCDPCTTWCDAISMRMGYYGDFVFDRVLQTDVNKEFQMGAKPTTATGNAAAPSTCTARENPAYGRHMQDAEMFTNAAYMALNIWDRFDVFCTLGATSGYLKGNSASFNLVGLFGDNENHATVSDSKLVPNMSLDQSVVELYTDTTFAWSAGARAALWECGCATLGASFQYAQSKPKVEELNVLCNAAEFTINKPKGYVGQEFPLDLKAGTDGVTGTKDASIDYHEWQASLALSYRLNMFTPYIGVKWSRASFDADTIRIAQPKSATTVFDVTTLNPTIAGAGDVKASAEGQLGDTMQIVSLQLNKMKSRKSCGIAVGTTIVDADKYAVTVETRLIDERAAHVNAQFRF
# What was measured:
# [1] = target: T1, BAK (human (endogenous in HeLa)); experiment: co-IP; HeLa OmpA expressing cells, with or without ABT-737 (1 uM) and S63845 (500 nM) for 3 h with QVD-OPh (10 uM); lysis in 1% CHAPS; BAK precipitated with an antibody against active and inactive BAK (clone 7D10) on protein G agarose overnight at 4 °C; immunoblot for BAK and OmpA
# [2] = target: T1, BAK (human (endogenous in HeLa)); experiment: proximity ligation; Tet-OmpA HeLa cells induced with AHT for 48 h, with ABT-737/S63845 and QVD-OPh (Fig 2B); fixed, permeabilised cells; Duolink PLA with antibodies against active BAK (aa23-38 or Ab-1 (TC-100)) and OmpA
# [3] = target: T1, BAK (human (endogenous in HeLa)); experiment: co-IP; Ctr-infected HeLa cells (MOI 5) treated with ABT-737 (1 uM) and S63845 (500 nM) for 4 h; mitochondria isolated and lysed in 1% CHAPS; precipitation with BAK (aa23-38) antibody or IgG isotype control; immunoblot for BAK and OmpA
# [4] = target: T1, BAK (human (endogenous in HeLa)); experiment: proximity ligation; BAX-deficient HeLa cells, Ctr-infected (MOI 5) 24 h, then ABT-737 (1 uM) and S63845 (500 nM) for 4 h with QVD-OPh (10 uM); fixed, permeabilised cells; PLA with antibodies against active BAK (Ab-1 (TC-100)) and OmpA
binder,measurement,setting,value
B1,binding,[1],binds
B2,binding,[2],binds
B3,binding,[3],binds
same,binding,[4],binds
